The supplement of paper PMC12823440, “Inhibitors supercharge kinase turnover through native proteolytic circuits” (Nature, 2025)
Counter-ions that a name gives are not always drawn. This is one part of the list. The calls rarely recur for the same compound in another form.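 In K562 cells expressing nanoluciferase-fused kinases, luminescence was recorded at 4 h intervals between 2 and 18 h, normalized as percent of control with DMSO at 100% and a positive control at 0%. A significant (2 sigma) signal drop marks a time point as decreased. The authors' rule for a hit is not shown and takes in more than the number of time points.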

The chains behind the UniProt entries cited, without tags or fusion partners. Where a name states a change or a piece, a line headed by the entry shows the natural chain unless it says otherwise.
UniProt P48729: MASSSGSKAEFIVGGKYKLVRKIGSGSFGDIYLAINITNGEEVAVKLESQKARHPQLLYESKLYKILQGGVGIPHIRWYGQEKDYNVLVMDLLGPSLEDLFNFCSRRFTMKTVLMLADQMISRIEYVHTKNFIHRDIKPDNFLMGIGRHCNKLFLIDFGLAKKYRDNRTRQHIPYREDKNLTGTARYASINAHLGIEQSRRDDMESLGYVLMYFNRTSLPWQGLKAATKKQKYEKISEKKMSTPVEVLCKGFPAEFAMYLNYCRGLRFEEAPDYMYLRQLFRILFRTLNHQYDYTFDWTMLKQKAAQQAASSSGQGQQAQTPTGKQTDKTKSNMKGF
UniProt P48730: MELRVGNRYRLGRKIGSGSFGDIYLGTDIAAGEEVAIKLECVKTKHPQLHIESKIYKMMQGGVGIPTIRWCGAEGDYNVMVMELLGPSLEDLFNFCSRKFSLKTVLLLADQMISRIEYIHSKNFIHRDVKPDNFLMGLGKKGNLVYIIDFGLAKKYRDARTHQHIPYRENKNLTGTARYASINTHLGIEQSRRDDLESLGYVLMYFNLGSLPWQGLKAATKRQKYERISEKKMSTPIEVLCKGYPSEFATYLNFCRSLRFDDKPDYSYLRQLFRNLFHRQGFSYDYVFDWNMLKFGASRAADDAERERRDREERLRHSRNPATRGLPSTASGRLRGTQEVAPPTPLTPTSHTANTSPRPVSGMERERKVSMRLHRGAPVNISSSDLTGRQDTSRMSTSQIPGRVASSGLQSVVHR

Each compound was assayed against CSNK1A1 (UniProt P48729) (assay: number of time points (of 5) at which kinase-Nluc abundance scored as decreased, DMSO-normalised (count); higher = more persistent destabilization). Settings: K562; 2-18 h.

Row | Compound | number of time points
1 | Cc1[nH]c(/C=C2\C(=O)Nc3ccccc32)c(C)c1CCC(=O)O [(Z)-Orantinib] (10 µM) | 0
2 | Cc1ccc(C(=O)Nc2ccc(Oc3cc4cnn(C)c4cc3-c3cn[nH]c3)c(F)c2)c(=O)n1-c1ccc(F)cc1 [Merestinib] (2.5 µM) | 0
3 | NS(=O)(=O)c1ccc(-n2nc(C(F)(F)F)cc2-c2ccc(Cl)cc2)cc1 (10 µM) | 0
4 | CN1CCN(c2cnc3c(C4CCN(C(=O)c5ccc(OC(F)(F)F)cc5N)CC4)ncnc3c2)CC1 (10 µM) | 0
5 | COc1ccc2c(OCc3nnc4ccc(-c5ccccc5)nn34)ccnc2c1 (2 µM) | 0
6 | NC(=O)c1ccc2[nH]ccc2c1 (10 µM) | 0
7 | CNc1nc(Nc2ccc(C(=O)N3CCOCC3)cc2OC)nc2[nH]cc(Cl)c12 (2.5 µM) | 0

Each compound was assayed against CSNK1D (UniProt P48730) in the same assay as above. Settings: K562; 2-18 h.

Row | Compound | number of time points
8 | Cn1cnc2c(F)c(Nc3ccc(Br)cc3Cl)c(C(=O)NOCCO)cc21 [Selumetinib (sulfate)] (10 µM) | 0
9 | COc1ncc(Cl)cc1S(=O)(=O)Nc1ccc(F)c(C#Cc2cnc(N)nc2)c1F (2.5 µM) | 0
10 | CNC(=O)c1cc(COc2nnc(Nc3ccc(Cl)cc3)c3ccoc23)ccn1 [Telatinib] (10 µM) | 0
11 | CC(C)(C)c1cc(O)ccc1O (10 µM) | 0
12 | Cn1cnc2c(F)c(Nc3ccc(Br)cc3Cl)c(C(=O)NOCCO)cc21 [Selumetinib] (10 µM) | 0
13 | Cc1c(-c2c(F)cc(C(N)=O)c3[nH]c4c(c23)CC[C@H](C(C)(C)O)C4)cccc1-n1c(=O)c2cccc(F)c2n(C)c1=O (2.5 µM) | 0
14 | O=C(CSC1=NCCN1)NC1CCCCCC1 [ICCB-19 (hydrochloride)] (2.5 µM) | 0
15 | Cn1cc(-c2ccc3nnc(Sc4ccc5ncccc5c4)n3n2)cn1 (10 µM) | 0
16 | Cc1ccccc1-c1c2nccc(-c3ccc(F)cc3F)c2cc[n+]1[O-] (10 µM) | 0
17 | Cn1nccc1Nc1nccc(-c2ccn([C@H](CO)c3ccc(Cl)c(F)c3)c(=O)c2)n1 [Ravoxertinib hydrochloride] (10 µM) | 0
18 | OCCn1cc(-c2ccc3c(c2)CC/C3=N\O)c(-c2ccncc2)n1 (10 µM) | 0
19 | NC(=O)c1nnc(N[C@@H]2CCCC[C@@H]2N)nc1Nc1cccc2cc[nH]c12 (10 µM) | 0
20 | O=C(NOCC(O)CO)c1cc(Br)c(F)c(F)c1Nc1ccc(I)cc1F (configuration not stated) (2.5 µM) | 0
21 | CN(C)CCSSCCNC(=O)C1CCN(C(=O)CSc2ccc(Cl)cc2)CC1 (10 µM) | 0
22 | CCC(C)N1c2ccccc2C(=O)N(C)c2cnc(Nc3ccc(C(=O)N4CCC(N5CCN(C)CC5)CC4)cc3OC)nc21 (configuration not stated) (2.5 µM) | 0
23 | CN(C)CCCOc1ccc(-c2ccc3ncc4c(c3c2)n(C2CCOCC2)c(=O)n4C)cn1 (2 µM) | 0
24 | COc1ccc(-c2ccc3c(N4CCOCC4)nc(N4C[C@@H](C)O[C@@H](C)C4)nc3n2)cc1CO (2.5 µM) | 0
25 | CC#CC(=O)N1CC[C@@H](n2c(=O)n(-c3ccc(Oc4ccccc4)cc3)c3c(N)ncnc32)C1 [Tirabrutinib (hydrochloride)] (10 µM) | 0

Row | Compound | number of time points
26 | NC(=O)c1ccc(-c2nc(-c3ccc4c(c3)OCCO4)c(-c3ccccn3)[nH]2)cc1 (10 µM) | 0
27 | FC(F)(F)c1ccc(CNc2ccc(Cc3c[nH]c4ncccc34)cn2)cc1 (10 µM) | 0
28 | COc1ccc(Cl)c(Nc2nc3ccccc3nc2NS(=O)(=O)c2cccc(NC(=O)C(C)(C)N)c2)c1 [Pilaralisib] (10 µM) | 0
29 | Oc1ccc(Nc2nc(-c3ccc(Cl)cc3)cs2)cc1 (10 µM) | 0
30 | Cc1nc(-c2cn3c(n2)-c2ccc(-c4cnn(C(C)(C)C(N)=O)c4)cc2OCC3)n(C(C)C)n1 [Taselisib] (10 µM) | 0
31 | COc1cccc(OC)c1C(=O)OCc1cc(O)ccc1O[C@@H]1O[C@H](CO)[C@@H](O)[C@H](O)[C@H]1O [Curculigoside] (10 µM) | 0
32 | CCc1cc2c(cc1N1CCC(N3CCOCC3)CC1)C(C)(C)c1[nH]c3cc(C#N)ccc3c1C2=O [Alectinib] (10 µM) | 0
33 | O=C(O)CCC(=O)Nc1ccc(Br)cn1 [Bikinin] (10 µM) | 0
34 | COc1cc(Nc2ncc(F)c(Nc3ccc4c(n3)N(COP(=O)(O)O)C(=O)C(C)(C)O4)n2)cc(OC)c1OC [Fostamatinib (disodium hexahydrate)] (10 µM) | 0
35 | Nc1cc(C(F)(F)F)c(-c2cc(N3CCOCC3)nc(N3CCOCC3)n2)cn1 [Buparlisib (Hydrochloride)] (2.5 µM) | 0
36 | O=C(NCCN1CCCC1)c1cc(-c2ccc(CN3CCOCC3)cc2)nc2ccc(F)cc12 (10 µM) | 0
37 | Cc1ccc(C(=O)Nc2ccc(Oc3cc4cnn(C)c4cc3-c3cn[nH]c3)c(F)c2)c(=O)n1-c1ccc(F)cc1 [Merestinib] (2.5 µM) | 0
38 | NS(=O)(=O)c1ccc(-n2nc(C(F)(F)F)cc2-c2ccc(Cl)cc2)cc1 (10 µM) | 0
39 | CN1CCN(c2cnc3c(C4CCN(C(=O)c5ccc(OC(F)(F)F)cc5N)CC4)ncnc3c2)CC1 (10 µM) | 0
40 | COc1ccc2c(OCc3nnc4ccc(-c5ccccc5)nn34)ccnc2c1 (2 µM) | 0
41 | NC(=O)c1ccc2[nH]ccc2c1 (10 µM) | 0
42 | CNc1nc(Nc2ccc(C(=O)N3CCOCC3)cc2OC)nc2[nH]cc(Cl)c12 (2.5 µM) | 0
